This test has as its target His-KAT2A (497–662) (UniProt Q92830). The test is described as follows: SEC; bacterially purified His-KAT2A (497–662) on HiPrep 16/60 Sephacryl S-300 High Resolution column; fractions of 3 ml from 18 to 120 ml immunoblotted; both purified. On the technique in general: In gel filtration, larger molecules generally elute earlier.

Chains of the proteins cited; added tags and fusions are not shown. Residues count along the entry.
UniProt Q92830, residues 497-662: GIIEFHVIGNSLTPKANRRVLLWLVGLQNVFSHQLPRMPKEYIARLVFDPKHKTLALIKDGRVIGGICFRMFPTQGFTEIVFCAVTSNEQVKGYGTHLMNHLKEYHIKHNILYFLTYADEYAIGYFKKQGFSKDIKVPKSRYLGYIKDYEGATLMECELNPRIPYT

These are yes or no findings as the source states them, for the method shown. Some results given as binding are weak or reduced against the parent protein; the word gives no strength.

The values below come from article PMC6079010.

As to “His-KAT2A (497–662) (from UniProt Q92830 497-662) (domain or fragment)”, the binding result is recorded as “binds”.
